According to the supplement of paper PMC7661543:
The effect of the compound repeats well; differences between the knockouts mostly do not.

Legend:
Assay in all cases: relative cell number vs DMSO control (72 h) (% of DMSO); higher = less growth inhibition (more cells)
BT-20 = system: BT-20
Method: (§1)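 QMAP-Seq: a pool of 5 breast cancer cell lines (ZR-75-1, SKBR3, HCC-38, MDA-MB-231, BT-20), each carrying 12 doxycycline-inducible Cas9 sgRNA perturbations (11 knockouts plus non-targeting sgNT), was treated with compounds for 72 h at four 10-fold doses (10 nM-10 uM or 1 nM-1 uM range). Barcodes were amplified and sequenced, and cell number was interpolated from 293T spike-in standard curves. The result is expressed as % of the median of DMSO wells. Two biological replicates.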

SKBR3 = system: SKBR3
Method: as §1

ZR-75-1 = system: ZR-75-1
Method: as §1

CS(=O)(=O)c1cccc(CNc2nc(Nc3ccc4c(c3)CCC(=O)N4)ncc2C(F)(F)F)c1
relative cell number
Conditions | BT-20 | SKBR3 | ZR-75-1
sgRNA knockout: sgATF3, 10 nM | 104 | 97 | 94.4
sgRNA knockout: sgATF3, 100 nM | 129 | 125 | 121.7
sgRNA knockout: sgATF3, 1000 nM | 94.5 | 87.87 | 76.6
sgRNA knockout: sgATF3, 10000 nM | 58.9 | 44.8 | 54.4
sgRNA knockout: sgATF4, 10 nM | 101 | 77.4 | 129
sgRNA knockout: sgATF4, 100 nM | 137 | 105 | 180
sgRNA knockout: sgATF4, 1000 nM | 110 | 90.9 | 106
sgRNA knockout: sgATF4, 10000 nM | 61.5 | 35.3 | 33.7
sgRNA knockout: sgATF6, 10 nM | 96.3 | 81.7 | 105
sgRNA knockout: sgATF6, 100 nM | 107.02 | 104 | 137.4
sgRNA knockout: sgATF6, 1000 nM | 97.4 | 84.2 | 71.1
sgRNA knockout: sgATF6, 10000 nM | 56.6 | 42.9 | 42.1
sgRNA knockout: sgATG7, 10 nM | 111 | 93 | 87
sgRNA knockout: sgATG7, 100 nM | 124 | 135 | 115
sgRNA knockout: sgATG7, 1000 nM | 96.4 | 85.8 | 108
sgRNA knockout: sgATG7, 10000 nM | 59.9 | 45.8 | 35.8
sgRNA knockout: sgERN1, 10 nM | 96.5 | 111 | 85.9
sgRNA knockout: sgERN1, 100 nM | 125 | 109 | 102
sgRNA knockout: sgERN1, 1000 nM | 109 | 90.34 | 111
sgRNA knockout: sgERN1, 10000 nM | 65.7 | 40.3 | 51.8
sgRNA knockout: sgHSF1, 10 nM | 89.4 | 79 | –
sgRNA knockout: sgHSF1, 100 nM | 115 | 100 | –
sgRNA knockout: sgHSF1, 1000 nM | 98.5 | 80.2 | –
sgRNA knockout: sgHSF1, 10000 nM | 64.2 | 44.5 | –
sgRNA knockout: sgHSF2, 10 nM | 105 | 91.5 | 81
sgRNA knockout: sgHSF2, 100 nM | 115.8 | 101 | 123.8
sgRNA knockout: sgHSF2, 1000 nM | 109 | 82.1 | 80.6
sgRNA knockout: sgHSF2, 10000 nM | 76.4 | 42.1 | 37.1
sgRNA knockout: sgKEAP1, 10 nM | 98.8 | 99.8 | –
sgRNA knockout: sgKEAP1, 100 nM | 114 | 118 | –
sgRNA knockout: sgKEAP1, 1000 nM | 95.5 | 61.3 | –
sgRNA knockout: sgKEAP1, 10000 nM | 68 | 35.3 | –
sgRNA knockout: sgNFE2L2, 10 nM | 127 | 101 | 88.6
sgRNA knockout: sgNFE2L2, 100 nM | 142 | 120 | 137
sgRNA knockout: sgNFE2L2, 1000 nM | 115 | 91.3 | 89.7
sgRNA knockout: sgNFE2L2, 10000 nM | 63.7 | 42.9 | 39.2
sgRNA knockout: sgSLC35F2, 10 nM | 107 | 89.5 | 139
sgRNA knockout: sgSLC35F2, 100 nM | 126.5 | 98.54 | 172
sgRNA knockout: sgSLC35F2, 1000 nM | 108 | 87.2 | 136
sgRNA knockout: sgSLC35F2, 10000 nM | 68.7 | 38.6 | 48.1
sgRNA knockout: sgXBP1, 10 nM | 99.8 | 112 | 93.9
sgRNA knockout: sgXBP1, 100 nM | 119 | 145 | 108.3
sgRNA knockout: sgXBP1, 1000 nM | 101 | 92.9 | 105
sgRNA knockout: sgXBP1, 10000 nM | 60.29 | 45.8 | 42.6

O=C1NC(=O)/C(=C/c2ccc3nccc(-c4ccncc4)c3c2)S1
relative cell number
Conditions | BT-20 | SKBR3 | ZR-75-1
sgRNA knockout: sgATF3, 10 nM | 83.7 | 63.3 | 61.2
sgRNA knockout: sgATF3, 100 nM | 99 | 88.7 | 104
sgRNA knockout: sgATF3, 1000 nM | 69.6 | 74.5 | 92.8
sgRNA knockout: sgATF3, 10000 nM | 50.9 | 31.2 | 41.5
sgRNA knockout: sgATF4, 10 nM | 84.5 | 88.8 | 123
sgRNA knockout: sgATF4, 100 nM | 103 | 110 | 111
sgRNA knockout: sgATF4, 1000 nM | 77.2 | 76.3 | 80.2
sgRNA knockout: sgATF4, 10000 nM | 42.8 | 30.6 | 41.6
sgRNA knockout: sgATF6, 10 nM | 92.7 | 74.57 | 128
sgRNA knockout: sgATF6, 100 nM | 95.5 | 82.6 | 66.2
sgRNA knockout: sgATF6, 1000 nM | 68.9 | 79.6 | 75.2
sgRNA knockout: sgATF6, 10000 nM | 43.2 | 31.5 | 35.9
sgRNA knockout: sgATG7, 10 nM | 103 | 89.7 | 108
sgRNA knockout: sgATG7, 100 nM | 88.4 | 119 | 118
sgRNA knockout: sgATG7, 1000 nM | 76.1 | 113 | 96.2
sgRNA knockout: sgATG7, 10000 nM | 40.4 | 35.8 | 31.5
sgRNA knockout: sgERN1, 10 nM | 100 | 114 | 92.4
sgRNA knockout: sgERN1, 100 nM | 87.84 | 103 | 94
sgRNA knockout: sgERN1, 1000 nM | 71.3 | 92 | 96.7
sgRNA knockout: sgERN1, 10000 nM | 34.2 | 23.2 | 46.5
sgRNA knockout: sgHSF1, 10 nM | 87.2 | 96.2 | –
sgRNA knockout: sgHSF1, 100 nM | 90.3 | 94.1 | –
sgRNA knockout: sgHSF1, 1000 nM | 63.7 | 80.9 | –
sgRNA knockout: sgHSF1, 10000 nM | 38.9 | 24.7 | –
sgRNA knockout: sgHSF2, 10 nM | 77.3 | 92.2 | 88.8
sgRNA knockout: sgHSF2, 100 nM | 89.55 | 74.5 | 108
sgRNA knockout: sgHSF2, 1000 nM | 69.8 | 74.5 | 92.4
sgRNA knockout: sgHSF2, 10000 nM | 43.6 | 31.7 | 33.9
sgRNA knockout: sgKEAP1, 10 nM | 93.4 | 68 | –
sgRNA knockout: sgKEAP1, 100 nM | 76.8 | 84.3 | –
sgRNA knockout: sgKEAP1, 1000 nM | 70.3 | 71.1 | –
sgRNA knockout: sgKEAP1, 10000 nM | 38.6 | 30.5 | –
sgRNA knockout: sgNFE2L2, 10 nM | 92.8 | 80.6 | 104
sgRNA knockout: sgNFE2L2, 100 nM | 94 | 85.5 | 95.4
sgRNA knockout: sgNFE2L2, 1000 nM | 65 | 86 | 93.1
sgRNA knockout: sgNFE2L2, 10000 nM | 45.9 | 31.4 | 43.6
sgRNA knockout: sgSLC35F2, 10 nM | 91.89 | 84 | 46.1
sgRNA knockout: sgSLC35F2, 100 nM | 80 | 109 | 117
sgRNA knockout: sgSLC35F2, 1000 nM | 67.7 | 61 | 66.3
sgRNA knockout: sgSLC35F2, 10000 nM | 44.5 | 29.5 | 49.9
sgRNA knockout: sgXBP1, 10 nM | 93.6 | 92.7 | 96.5
sgRNA knockout: sgXBP1, 100 nM | 81.8 | 94.6 | 96.9
sgRNA knockout: sgXBP1, 1000 nM | 80.3 | 92.1 | 88.3
sgRNA knockout: sgXBP1, 10000 nM | 47.59 | 28.9 | 36.3

O=c1cc(-c2cccc3c2Sc2ccccc2S3)oc(N2CCOCC2)c1
relative cell number
Conditions | BT-20 | SKBR3 | ZR-75-1
sgRNA knockout: sgATF3, 10 nM | 90.6 | 106 | 90.6
sgRNA knockout: sgATF3, 100 nM | 87.43 | 117 | 94.9
sgRNA knockout: sgATF3, 1000 nM | 91.9 | 112 | 111
sgRNA knockout: sgATF3, 10000 nM | 82.7 | 49.6 | 82.5
sgRNA knockout: sgATF4, 10 nM | 90.57 | 95.9 | 82.2
sgRNA knockout: sgATF4, 100 nM | 90.2 | 94.2 | 115
sgRNA knockout: sgATF4, 1000 nM | 99 | 90.7 | 129
sgRNA knockout: sgATF4, 10000 nM | 85.1 | 50 | 55.09
sgRNA knockout: sgATF6, 10 nM | 106 | 81 | 125
sgRNA knockout: sgATF6, 100 nM | 106 | 93.8 | 100
sgRNA knockout: sgATF6, 1000 nM | 107 | 86.4 | 98
sgRNA knockout: sgATF6, 10000 nM | 89.5 | 60.8 | 74
sgRNA knockout: sgATG7, 10 nM | 102 | 90.8 | 76.3
sgRNA knockout: sgATG7, 100 nM | 94.7 | 101 | 93.8
sgRNA knockout: sgATG7, 1000 nM | 110 | 108 | 107
sgRNA knockout: sgATG7, 10000 nM | 71.3 | 68.73 | 75.1
sgRNA knockout: sgERN1, 10 nM | 89.2 | 119 | 71.7
sgRNA knockout: sgERN1, 100 nM | 98 | 104 | 105
sgRNA knockout: sgERN1, 1000 nM | 93.87 | 96.3 | 98.7
sgRNA knockout: sgERN1, 10000 nM | 89.9 | 44.5 | 68.1
sgRNA knockout: sgHSF1, 10 nM | 97.6 | 91.2 | –
sgRNA knockout: sgHSF1, 100 nM | 96.4 | 88.3 | –
sgRNA knockout: sgHSF1, 1000 nM | 104 | 99.1 | –
sgRNA knockout: sgHSF1, 10000 nM | 94.2 | 50.8 | –
sgRNA knockout: sgHSF2, 10 nM | 91 | 95.7 | 92.1
sgRNA knockout: sgHSF2, 100 nM | 85.05 | 89.5 | 91.3
sgRNA knockout: sgHSF2, 1000 nM | 97.1 | 93.1 | 98.1
sgRNA knockout: sgHSF2, 10000 nM | 82.8 | 50.2 | 76.565
sgRNA knockout: sgKEAP1, 10 nM | 97.2 | 109 | –
sgRNA knockout: sgKEAP1, 100 nM | 88.3 | 87.7 | –
sgRNA knockout: sgKEAP1, 1000 nM | 110 | 80.1 | –
sgRNA knockout: sgKEAP1, 10000 nM | 99.2 | 51.3 | –
sgRNA knockout: sgNFE2L2, 10 nM | 89.4 | 104 | 107
sgRNA knockout: sgNFE2L2, 100 nM | 91.5 | 80.8 | 79.6
sgRNA knockout: sgNFE2L2, 1000 nM | 94.3 | 90.23 | 94.34
sgRNA knockout: sgNFE2L2, 10000 nM | 80.5 | 56.9 | 77.8
sgRNA knockout: sgSLC35F2, 10 nM | 74.5 | 85.4 | 72.2
sgRNA knockout: sgSLC35F2, 100 nM | 83.11 | 73.8 | 72.1
sgRNA knockout: sgSLC35F2, 1000 nM | 106 | 98 | 102
sgRNA knockout: sgSLC35F2, 10000 nM | 75.3 | 62.6 | 78.2
sgRNA knockout: sgXBP1, 10 nM | 92.8 | 118 | 95.2
sgRNA knockout: sgXBP1, 100 nM | 92.2 | 85.9 | 72.29
sgRNA knockout: sgXBP1, 1000 nM | 103 | 79.3 | 106
sgRNA knockout: sgXBP1, 10000 nM | 91.724 | 58.1 | 66.2
